No constants are given. Whether binding was seen depends on the method and setting. A result given as binding can be weak or reduced; the word gives no strength.
Molecular target: BnaBZR1 (BnaAnng32010D), two-hybrid fusion (Brassica napus (rapeseed))
Test: two-hybrid; BnaARF8 (BnaC03g59640D) with BnaBZR1 (BnaAnng32010D); selective medium SD/-Trp-Leu-His-Ade; vectors not stated

binding: binds
Substance: BnaARF8 (BnaC03g59640D), two-hybrid fusion in pGADT7 (from UniProt A0A078FIW5)

Reference: PMC6647246
